Results from PubChem BioAssay AID662 (National Center for Advancing Translational Sciences (NCATS), 2007).
This is one part of the list. The main result of the screen is listed elsewhere. These columns were measured beside it and carry no call. Most of these compounds were active or inconclusive in the main read-out, so they are no random draw. Words in brackets tell the shape of the fitted curve; partial curves, single points and poor fits give uncertain potencies.

Test: Cell signaling CRE-BLA (Fsk stim)
Conditions: CHO CRE-bla reporter (cAMP response element driving beta-lactamase), forskolin EC10, beta-lactamase ratio; measured here: 460 nm blue channel
Source text: NIH Molecular Libraries Screening Centers Network [MLSCN]
NIH Chemical Genomics Center [NCGC]
Assay Provider: Marshall W. Nirenberg, U.S. National heart lung & blood institute
Memories persist for different lengths of time, from seconds or minutes to a lifetime. There are two kinds of memory: short-term memory (STM) and long-term memory (LTM). STM lasts for minutes to hours, which maybe mediated by modifications of molecules involved in synaptic functions. LTM lasts for days or longer, and may be due to the formation of new synapses or restructuring of existing synapses. LTM, but not STM, requires gene transcription and synthesis of proteins. CREB (cyclic-AMP Responsive Element Binding Protein) is one of the candidates plays an important role for enhancement of some types of LTM. CREB, a family of transcription factors, regulates the transcription of genes containing cAMP Responsive Elements (CRE). CRE is a nucleotide sequence often found in the promoter regions of genes that are binding sites for CREB.
Using a beta-lactamase reporter-gene under control of cAMP responsive element, a cell-based assay [CellSensor(TM) CRE-bla CHO developed by Invitrogen Corp.] was used to measure forskolin-induced signaling. Library compounds were measured for their ability to modulate positively or negatively the action of EC10 NKH 477, a water soluble forskolin, on reporter gene activity. Compounds were screened in a titration series in 1536-well format. Positive and negative modulators were identified based on the AC50 values derived from the screening data.
NCGC Assay Protocol Summary
2000 cells/5uL in Opti-MEM medium containing 0.5% dialyzed FBS, 0.1 mM NEAA, 1 mM sodium pyruvate and 10 mM HEPES was dispensed into 1536-well plates and cells were cultured at 37 degrees Celsius overnight. […] And then the plates were incubated at 37 degrees Celsius for 3 hours. 1 uL of CCF4-dye mixture was added to each well. After incubated at room temperature for 2 hours the plates were measured on an EnVision plate reader at Excitation 405nm, Emission1=460nm and Emission 2=530nm. The %Activity was determined from the ratio of 460nm/530nm.
Keywords: NIH Roadmap, MLSCN, MLSMR, qHTS, NCGC, CRE, beta-lactamase reporter-gene assay.

| SMILES | AC50 |
| --- | --- |
| CCn1nc(C(=O)NCCc2ccc(S(N)(=O)=O)cc2)c2ccccc2c1=O | 15.8 µM [rising, single point] |
| Cc1ccc2nc(N3CCN(Cc4ccc(F)cc4)C3=O)c(C)cc2c1 | 0.794 µM [falling, full curve] |
| Cc1ccccc1-c1ccc2ncnc(N3CCN(C)CC3)c2c1 | 5.01 µM [rising, partial curve] |
| COc1ccc(-c2noc(CCC(=O)Nc3ccc4c(c3)OCCO4)n2)cc1 | 0.631 µM [falling, full curve] |
| Cc1ccc(-c2cn3nc(C)c(C)nc3n2)cc1 | 3.98 µM [rising, partial curve] |
| CC(C)(C)n1ncc2c(=O)n(CC(=O)NCc3ccccc3)cnc21 | 0.501 µM [falling, partial curve] |
| CCn1c(N)nc2c1c(=O)n(C)c(=O)n2C | 15.8 µM [rising, partial curve] |
| O=C(OCCN=C1NS(=O)(=O)c2ccccc21)C1CC(=O)N(c2ccc(Cl)cc2)C1 (centres undefined) | 0.00316 µM [falling, full curve, poor fit] |
| Cc1cnc(CNc2ncnc3ccc(-c4ccc5c(c4)OCO5)cc23)cn1 | 12.6 µM [rising, partial curve] |
| c1ccc(-c2noc(-c3ccc4c(c3)OCO4)n2)nc1 | 25.1 µM [rising, single point] |
| CC(=O)Nc1ccc(C(=O)CCl)cc1 | 31.6 µM [falling, single point] |
| COC(=O)[C@@]1(Cc2ccccc2)[C@H]2c3cc(C(=O)N4CCCC4)n(CCc4ccccn4)c3C[C@H]2CN1C(=O)c1ccccc1 | 7.94 µM [rising, partial curve] |
| N#Cc1nc(Cc2ccccc2)oc1N1CCC(Cc2ccccc2)CC1 | 3.98 µM [rising, partial curve] |
| c1ncc(CC2CCNCC2)[nH]1 | 31.6 µM [falling, single point] |
| COCCNc1nc(-c2ccccc2C)nc2ccccc12 | 10 µM [rising, partial curve] |
| Fc1ccc(-c2csc3nnc(SCc4cccnc4)n23)cc1 | 15.8 µM [rising, single point] |
| C=CCNc1sc(C(=O)C(C)(C)C)c(N)c1C#N | 7.94 µM [rising, partial curve] |
| CCOC(=O)CCn1nc(-c2ccccc2)cc1N | 0.1 µM [falling, full curve, poor fit] |
| CN(C)c1ncc2nc(-c3cc(F)cc(F)c3)c(=O)n(C[C@H]3CCCO3)c2n1 | 0.01 µM [rising, full curve] |
| CNC[C@H](O)c1ccc(OC(=O)C(C)(C)C)c(OC(=O)C(C)(C)C)c1 | 10 µM [falling, partial curve] |
| CCOC(=O)c1sc(NC(=O)CSc2nc(-c3ccco3)cc(C(F)(F)F)n2)c(C#N)c1C | 12.6 µM [falling, single point] |
| NC1=NC2(CCC(c3ccccc3)CC2)n2c(nc3ccccc32)N1 (centres undefined) | 1 µM [falling, full curve] |

| SMILES | AC50 |
| --- | --- |
| CCN(C(=O)c1coc(=O)c(Br)c1)c1ccc2c(c1)OCO2 | 3.16 µM [falling, single point] |
| CN(Cc1ccccc1)Cc1nc2c(c(=O)n(C)c(=O)n2C)n1CCc1ccccc1 | 25.1 µM [rising, single point] |
| COc1ccc(N=CC2=C(O)CC(C)(C)CC2=O)cc1 | 12.6 µM [rising, single point] |
| C[C@@H]1O[C@@H](n2cc(F)c(=O)[nH]c2=O)[C@H](O)[C@@H]1O | 25.1 µM [falling, partial curve] |
| CN(CC(=O)N1CCc2ccccc21)S(=O)(=O)c1cccs1 | 0.0631 µM [falling, full curve, poor fit] |
| Cc1c[n+]([O-])n(-c2ccc(C(=O)O)cc2)n1 | 0.00398 µM [falling, full curve, poor fit] |
| COCn1c(-c2ccc(OC)c(OC)c2)nc2ccccc21 | 0.398 µM [falling, partial curve] |
| O=C(CCNS(=O)(=O)c1ccc(Br)s1)NC1CCCC1 | 0.02 µM [falling, partial curve] |
| Cc1nn2c(=O)cc(CSc3nc4ccccc4[nH]3)nc2s1 | 2 µM [rising, full curve] |
| CCn1c2ccccc2c2nnc(SCc3ccc(C(=O)OC)o3)nc21 | 1.26 µM [rising, full curve] |
| COc1cccc(Cn2nnc(C(=O)Nc3cc(Cl)ccc3OC)c2N)c1 | 1.26 µM [rising, full curve] |
| O=C(CCCSc1nc2ccccc2[nH]1)NC1=NCCS1 | 10 µM [rising, partial curve] |
| COC(=O)C1=C(C)Nc2nc(-c3ccccc3)nn2C1c1ccc(C)o1 (centres undefined) | 10 µM [rising, partial curve] |
| CCc1nc(SCC(=O)Nc2cccc(C(F)(F)F)c2)c2c(=O)n(C)c(=O)n(C)c2n1 | 25.1 µM [rising, single point] |
| CNC(=O)c1cccc(N2CCCC2=O)c1 | 0.251 µM [rising, full curve, poor fit] |
| CC(C)C(c1nnnn1Cc1ccco1)N1CCN(c2nc3ccccc3s2)CC1 (centres undefined) | 10 µM [falling, single point] |
| CCC(c1nnnn1C1CCCCC1)N(Cc1ccco1)Cc1cc2ccc(OC)cc2[nH]c1=O (centres undefined) | 20 µM [rising, single point] |
| CCOC(=O)c1c(NC(=O)c2noc3c2CCCC3)sc2c1CCCC2 | 3.16 µM [falling, single point] |
| Cc1cc(Nc2ccc(C(C)C)cc2)n2ncnc2n1 | 25.1 µM [rising, single point] |
| Cc1cc(NCc2ccc3c(c2)OCO3)n2nc(C)nc2n1 | 10 µM [rising, single point] |
| CCCSc1ccc2nc(NC(=O)OC)[nH]c2c1 | 5.01 µM [rising, partial curve] |
| COC(=O)CSc1nnc2n(C3CCCCC3)c(=O)c3c4c(sc3n12)CCCC4 | 5.01 µM [rising, partial curve] |

Some of the entries above in another layout.
SMILES | AC50
Cc1cc(Nc2ccc(C(C)C)cc2)n2ncnc2n1 | 25.1 µM [rising, single point]
Cc1cc(NCc2ccc3c(c2)OCO3)n2nc(C)nc2n1 | 10 µM [rising, single point]
CCCSc1ccc2nc(NC(=O)OC)[nH]c2c1 | 5.01 µM [rising, partial curve]
